Among the data in PubChem BioAssay AID180 (DTP/NCI, 2004) are survivor count and T/C values, retold here.

The list does not hold the whole screen: it is rich in T/C values a quarter to a half above the control, in often repeated tests (any T/C) and in doses without a T/C. Further doses and runs are listed elsewhere. T/C gives the treated animals as a percentage of the vehicle group. Schedules are NCI's codes, read here as Q, the interval in days (D) or hours (H), X, the number of doses. Some entries hold several experiments; their values stand side by side, smallest first. Some T/C values carry the count of animals alive at the toxicity check (mostly the fifth day); without a count, all were alive then. Some entries give survivors of the animals treated and no T/C: the source holds a T/C of zero for them, seemingly a mark for toxic or unscored doses. Survivors were counted at the toxicity check, usually on the fifth day, unless a day is given; later deaths do not show.

This assay relates to BDF1 mice, Adenocarcinoma 755 s.c., tumor weight T/C. The assay is described as follows: NCI In Vivo Anticancer Drug Screen. Data for tumor model Adenocarcinoma 755 (subcutaneous) in B6D2F1 (BDF1) mice. The following applies: T/C endpoint: mean tumor weight, higher T/C = larger tumour; for T/C: evaluated on day 12. Summed up: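 Compound activity was tested in mice carrying transplanted tumors. Survival or tumor size was measured, and each value is the treated-group measurement divided by that of the vehicle-treated control group (T/C).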

Where [1] appears, read: dose: 75.0 mg/kg/injection, schedule: Q01DX011 (ip), vehicle: saline.
[2] abbreviates: dose: 62.0 mg/kg/injection, schedule: Q01DX011 (ip), vehicle: methylcellulose (MC).
Where [3] appears, read: dose: 125.0 mg/kg/injection, schedule: Q01DX011 (ip), vehicle: methylcellulose (MC).
The mark [4] stands for this setting: dose: 15.0 mg/kg/injection, schedule: Q01DX011 (ip), vehicle: methylcellulose (MC).
Setting [5] is: dose: 250.0 mg/kg/injection, schedule: Q01DX011 (ip), vehicle: methylcellulose (MC).
[6] abbreviates: dose: 120.0 mg/kg/injection, schedule: Q01DX011 (ip), vehicle: carboxymethylcellulose (CMC).
Where [7] appears, read: dose: 240.0 mg/kg/injection, schedule: Q01DX011 (ip), vehicle: carboxymethylcellulose (CMC).
[8] abbreviates: dose: 300.0 mg/kg/injection, schedule: Q01DX011 (ip), vehicle: saline.

Regarding `Oc1ccc2ccccc2c1N=Nc1ccc(F)cc1`, the survivor count (dose: 56.0 mg/kg/injection, schedule: Q01DX011 (ip), vehicle: carboxymethylcellulose (CMC)) is reported as 5 of 10 and the survivor count (dose: 185.0 mg/kg/injection, schedule: Q01DX011 (ip), vehicle: carboxymethylcellulose (CMC)) was 3 of 10.

`Nc1ncnc2c1ncn2CCN(CCO)CCO`: the T/C under setting [1] is 146 % of control. Take `CSc1ncc(C)c(Nc2ccc(Cl)cc2)n1`: the T/C (dose: 31.0 mg/kg/injection, schedule: Q01DX011 (ip), vehicle: methylcellulose (MC)) was 138 % of control [8 of 10 alive]. In addition, the survivor count is, setting by setting: under setting [2], 6 of 10; under setting [3], 1 of 10. For `Cn1c(N)nc2nc[nH]c2c1=S`, the survivor count (dose: 1500.0 micrograms/kg/injection, schedule: Q01DX011 (ip), vehicle: methylcellulose (MC)) is recorded as 6 of 10. `O=[N+]([O-])c1ccc(Oc2cc(Cl)c(Cl)cc2Cl)c([N+](=O)[O-])c1`: the survivor count reads like this: (dose: 400.0 mg/kg/injection, schedule: Q01DX011 (ip), vehicle: carboxymethylcellulose (CMC)) 3 of 10; (dose: 800.0 mg/kg/injection, schedule: Q01DX011 (ip), vehicle: carboxymethylcellulose (CMC)) 6 of 10.

For `S=P(Oc1ccccc1)(N1CC1)N1CC1`, where the note is “dose: 110.0 mg/kg/injection, schedule: Q01DX011 (ip), vehicle: methylcellulose (MC)”, the survivor count was 2 of 10. For the compound `O=C(O)c1cc(Cl)nc(Cl)n1`, the T/C under setting [4] was 134 % of control. Further, the survivor count under setting [5] is on record as 2 of 10. Regarding `Cn1c(=O)c2cc[nH]c2n(C)c1=O`, the survivor count is, setting by setting: under setting [6], 2 of 10; under setting [7], 0 of 10. Consider `CSc1ncc(Br)c(=S)[nH]1`, for which the survivor count is recorded as 6 of 10 under setting [2], 6 of 10 under setting [3] and 6 of 10 under setting [5].

Turning to `CC(=O)[C@H]1[C@H](C)C[C@H]2[C@@H]3CCC4=CC(=O)CC[C@]4(C)[C@@]3(F)[C@@H](O)C[C@@]21C`, the survivor count (dose: 700.0 mg/kg/injection, schedule: Q01DX011 (sc), vehicle: steroid suspending solution) is on record as 2 of 10. Take `CSc1ncc(Br)c(SC)n1`: the survivor count by setting is: under setting [4], 1 of 10; under setting [3], 6 of 10; under setting [5], 1 of 10. On to `CCN(CC)CCNc1ccc(C)c2sc3ccccc3c(=O)c12`, for which the T/C (dose: 41.4 mg/kg/injection, schedule: Q01DX011 (ip), vehicle: carboxymethylcellulose (CMC)) was 129 % of control. Further, the survivor count (dose: 103.5 mg/kg/injection, schedule: Q01DX011 (ip), vehicle: carboxymethylcellulose (CMC)) is listed as 5 of 10.

In the case of `Cc1cc(Nc2cccc(Cl)c2)nc(N)n1`, the survivor count under setting [2] was 2 of 10. With `CN1CCN(C(=O)CCCl)CC1`, the T/C is 132 % of control (dose: 25.0 mg/kg/injection, schedule: Q01DX011 (ip), vehicle: other) and 128 % of control (dose: 75.0 mg/kg/injection, schedule: Q01DX011 (ip), vehicle: other). Turning to `O=[N+]([O-])c1ccc2ncccc2c1`, the survivor count runs as follows: (dose: 50.0 mg/kg/injection, schedule: Q01DX011 (ip), vehicle: other) 2 of 10; (dose: 250.0 mg/kg/injection, schedule: Q01DX011 (ip), vehicle: other) 2 of 10. For the compound `Cc1ncc(CO)c(C)c1O`, where the note is “dose: 29.53 mg/kg/injection, schedule: Q01DX011 (ip), vehicle: carboxymethylcellulose (CMC)”, the T/C was 134 % of control [9 of 10 alive]. The survivor count by setting is: (dose: 62.5 mg/kg/injection, schedule: Q01DX011 (ip), vehicle: methylcellulose (MC)) 1 of 10; (dose: 200.0 mg/kg/injection, schedule: Q01DX011 (ip), vehicle: saline) 4 of 10; under setting [5], 2 of 10; under setting [8], 0 of 10; (dose: 400.0 mg/kg/injection, schedule: Q01DX011 (ip), vehicle: saline) 0 of 10. With `CCCn1cnc2c(SCCc3ccccc3)nc(N)nc21`, the survivor count (dose: 400.0 mg/kg/injection, schedule: Q01DX011 (ip), vehicle: methylcellulose (MC)) was 6 of 10. Take `O=C(O)Cn1cccc1`: the survivor count (dose: 8000.0 mg/kg/injection, schedule: Q01DX011 (ip), vehicle: other) is given as 1 of 10. Take `Nc1ncnc2c1ncn2CCO`: for the setting “dose: 200.0 mg/kg/injection, schedule: Q01DX011 (ip), vehicle: methylcellulose (MC)”, the T/C is 134 % of control. For the compound `CC1CN1P1(N2CC2C)=NP(N2CC2C)(N2CC2C)=NP(N2CC2C)(N2CC2C)=N1` (centres undefined), the survivor count reads like this: under setting [1], 0 of 10; (dose: 150.0 mg/kg/injection, schedule: Q01DX011 (ip), vehicle: saline) 0 of 10; under setting [8], 0 of 10; (dose: 600.0 mg/kg/injection, schedule: Q01DX011 (ip), vehicle: saline) 0 of 10.

For `COc1cc(/C=N/Nc2nc3c([nH]2)c(=O)n(C)c(=O)n3C)ccc1O`, where the note is “dose: 60.0 mg/kg/injection, schedule: Q01DX011 (ip), vehicle: carboxymethylcellulose (CMC)”, the T/C is 148 % of control [9 of 10 alive]. In addition, under setting [7], the survivor count was 6 of 10. `OC1CC([CH2][Hg][I])OC([CH2][Hg][I])C1` (centres undefined): the survivor count is, setting by setting: (dose: 100.0 mg/kg/injection, schedule: Q01DX011 (ip), vehicle: carboxymethylcellulose (CMC)) 0 of 10; (dose: 200.0 mg/kg/injection, schedule: Q01DX011 (ip), vehicle: carboxymethylcellulose (CMC)) 0 of 10. With `Nc1nc(N)c2[nH]c(N=Nc3ccc(N(CCO)CCO)cc3)nc2n1`, under setting [1], the T/C was 145 % of control [9 of 10 alive]. For the compound `Nc1nc(O)c(Br)c(=O)[nH]1`, the survivor count under setting [3] is reported as 2 of 10. As for `O=C(CCBr)N1CCCN(C(=O)CCBr)CC1`, the survivor count is recorded as 4 of 10 (dose: 113.0 mg/kg/injection, schedule: Q01DX011 (ip), vehicle: methylcellulose (MC)) and 1 of 10 (dose: 226.0 mg/kg/injection, schedule: Q01DX011 (ip), vehicle: methylcellulose (MC)). Take `COc1cc(C(=O)O)nc(SC)n1`: the survivor count under setting [5] is recorded as 1 of 10. On to `CSc1ncn(C)c2ncnc1-2`, for which the survivor count under setting [6] is 5 of 10. `CC1C[C@@H]2[C@H]([C@@H](O)C[C@@]3(C)[C@H]2CC[C@]3(O)C(=O)CF)[C@@]2(C)CCC(=O)C=C12` (some centres undefined): the T/C by setting is: (dose: 42.5 mg/kg/injection, schedule: Q01DX011 (sc), vehicle: steroid suspending solution) 11, 15, 31, 49 % of control; (dose: 85.0 mg/kg/injection, schedule: Q01DX011 (sc), vehicle: steroid suspending solution) 7 [9 of 12 alive], 12, 21, 30 % of control. With `CN1NC=Nc2c(Cl)ncnc21`, the T/C (dose: 6.0 mg/kg/injection, schedule: Q01DX011 (ip), vehicle: carboxymethylcellulose (CMC)) was 134 % of control [9 of 10 alive]; the T/C (dose: 12.0 mg/kg/injection, schedule: Q01DX011 (ip), vehicle: carboxymethylcellulose (CMC)) is 147 % of control [9 of 10 alive]; the T/C (dose: 25.0 mg/kg/injection, schedule: Q01DX011 (ip), vehicle: carboxymethylcellulose (CMC)) was 128 % of control [9 of 10 alive]. In the case of `O=C(O)c1cccc2c3c(cc([N+](=O)[O-])c12)CCCC3`, the survivor count (dose: 0.37 mg/kg/injection, schedule: Q01DX011 (ip), vehicle: carboxymethylcellulose (CMC)) is on record as 6 of 10. Take `COC(C(=O)C(O)C(C)O)C1Cc2cc3cc(OC4CC(OC(C)=O)C(OC5CC(O)C(OC)C(C)O5)C(C)O4)cc(O)c3c(O)c2C(=O)C1OC1CC(OC2CC(OC3CC(C)(O)C(OC(=O)C(C)C)C(C)O3)C(O)C(C)O2)C(O)C(C)O1` (centres undefined): the survivor count is, setting by setting: (dose: 0.31 mg/kg/injection, schedule: Q01DX011 (ip), vehicle: carboxymethylcellulose (CMC)) 2 of 10; (dose: 0.62 mg/kg/injection, schedule: Q01DX011 (ip), vehicle: carboxymethylcellulose (CMC)) 2 of 10.
